Source: PMC9066097
Results are given in words; binding and its absence hold for the method and conditions named. In cells and extracts the contact can be indirect. Some binding calls cover weakened binding; strength is not graded here.

Protein sequences, listed by entry. Tags and fused reporters are not part of them.
UniProt Q96EB6: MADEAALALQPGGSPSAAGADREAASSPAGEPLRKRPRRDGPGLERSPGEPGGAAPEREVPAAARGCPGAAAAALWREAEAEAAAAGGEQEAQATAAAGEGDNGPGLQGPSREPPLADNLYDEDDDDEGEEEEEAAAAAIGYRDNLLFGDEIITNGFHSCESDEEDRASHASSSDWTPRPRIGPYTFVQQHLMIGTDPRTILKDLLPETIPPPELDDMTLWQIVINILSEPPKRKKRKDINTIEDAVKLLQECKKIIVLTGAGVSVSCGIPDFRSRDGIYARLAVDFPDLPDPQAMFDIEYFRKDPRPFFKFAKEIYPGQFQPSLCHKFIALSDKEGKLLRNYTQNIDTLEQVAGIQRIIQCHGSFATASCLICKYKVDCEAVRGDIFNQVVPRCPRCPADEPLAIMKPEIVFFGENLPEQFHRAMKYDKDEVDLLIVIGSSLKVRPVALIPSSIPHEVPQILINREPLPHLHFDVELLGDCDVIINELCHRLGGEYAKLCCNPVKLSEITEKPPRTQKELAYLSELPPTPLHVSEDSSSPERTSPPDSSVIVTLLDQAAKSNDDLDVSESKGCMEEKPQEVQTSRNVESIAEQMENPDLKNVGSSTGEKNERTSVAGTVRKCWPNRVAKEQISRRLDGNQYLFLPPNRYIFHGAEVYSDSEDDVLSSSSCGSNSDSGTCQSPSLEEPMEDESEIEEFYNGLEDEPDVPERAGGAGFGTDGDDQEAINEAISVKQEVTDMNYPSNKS
UniProt Q13263: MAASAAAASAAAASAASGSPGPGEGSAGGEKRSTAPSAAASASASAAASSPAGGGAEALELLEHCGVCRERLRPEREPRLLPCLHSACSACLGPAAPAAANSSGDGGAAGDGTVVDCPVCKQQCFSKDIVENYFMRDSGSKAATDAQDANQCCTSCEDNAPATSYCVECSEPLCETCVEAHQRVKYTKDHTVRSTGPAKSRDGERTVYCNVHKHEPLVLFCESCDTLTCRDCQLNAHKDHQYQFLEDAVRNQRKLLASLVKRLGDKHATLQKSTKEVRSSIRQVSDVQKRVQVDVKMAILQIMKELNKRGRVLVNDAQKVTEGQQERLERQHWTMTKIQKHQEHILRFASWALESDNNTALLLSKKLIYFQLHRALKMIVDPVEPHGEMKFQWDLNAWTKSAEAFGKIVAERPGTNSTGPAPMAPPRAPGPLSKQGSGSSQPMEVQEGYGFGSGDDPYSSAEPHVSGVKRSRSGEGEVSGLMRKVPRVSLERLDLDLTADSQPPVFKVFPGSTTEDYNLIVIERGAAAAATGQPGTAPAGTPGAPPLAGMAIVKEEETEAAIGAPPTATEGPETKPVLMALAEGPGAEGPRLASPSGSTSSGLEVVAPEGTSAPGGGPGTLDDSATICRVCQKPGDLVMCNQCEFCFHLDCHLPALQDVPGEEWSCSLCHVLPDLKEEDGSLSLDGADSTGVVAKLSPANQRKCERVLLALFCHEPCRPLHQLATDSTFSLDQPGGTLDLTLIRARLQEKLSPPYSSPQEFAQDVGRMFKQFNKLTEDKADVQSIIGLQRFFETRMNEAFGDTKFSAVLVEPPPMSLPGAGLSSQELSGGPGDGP

Target: FLAG-SIRT1 (UniProt Q96EB6)
Test: co-IP; anti-FLAG agarose IP from lysates of HEK293T cells transfected with the FLAG-tagged bait for 24 h, treated with DMSO or DOX (5 µM) for 8 h; IP lysis buffer 10 mM Tris-HCl pH 7.4, 100 mM NaCl, 2.5 mM MgCl2, 0.5% Triton X-100; overnight at 4 °C; western blot

With “TRIM28 (tripartite motif-containing protein 28) (from UniProt Q13263 1-835)” the binding was “binds”.
